Test results from PubChem BioAssay AID2685 (National Center for Advancing Translational Sciences (NCATS), 2010).
The list shows a part of the results. Further columns of the screen follow, without active or inactive calls. The list favours compounds with an active or inconclusive main result. Potencies come from curve fits of mixed quality, noted in brackets.

Assay: qHTS Assay for Lipid Storage Modulators in Drosophila S3 Cells;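 as to cell number change: cells counted by Cell Tracker Red CMTPX staining in the red channel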
Conditions: BODIPY lipid droplet fluorescence, 18-24 h; for cell number change: measured here: cell count max response, cells fed with added oleic acid
Summary of the method: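 Drosophila S3 cells loaded with oleic acid (400 uM, as added) and compounds at several concentrations; lipid droplets imaged by 488-nm laser-scanning cytometry, 500–530 nm intensity and object ratio to cell channel. Percent activity normalized to 20 uM Triacsin C.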

[1] = measured here: cell number channel AC50, cells fed with added oleic acid
[2] = measured here: lipid fluorescence (Fed channel) AC50, cells fed with added oleic acid

SMILES | cell number change [%] | AC50 [1] | AC50 [2]
COc1ccc(-c2nc3c(s2)CCc2onc(-c4ccc(OC)cc4)c2-3)cc1 | 32.6 | 18.4 µM [rising, single point] | 
Cc1ccc2ccc(C)[n+](CCCS(=O)(=O)[O-])c2c1 |  | 1.03 µM [falling, full curve] | 1.03 µM [falling, full curve]
Cc1oc2c(c(C)cc3oc(=O)c(CC(=O)NCC(=O)NCC(=O)O)c(C)c32)c1C | 3.78 |  | 9.2 µM [falling, partial curve]
CCS(=O)(=O)N1CCC(C(=O)NCC2CCCO2)CC1 (configuration not stated) | 40.7 | 0.231 µM [rising, full curve] | 0.103 µM [rising, full curve, poor fit]
O=C(Cc1ccc(NS(=O)(=O)c2cccc(C(F)(F)F)c2)cc1)NCCN1CCOCC1 | 10.8 |  | 
COc1ccc(-c2nc3c(-c4ccc(F)cc4)cnn3cc2C)cc1F | 9.3 |  | 2.31 µM [rising, partial curve]
O=C(CSc1nc2ccccc2c(=O)n1Cc1ccco1)c1ccc(F)cc1 | -18.6 |  | 32.6 µM [falling, single point]
Cc1nc(-c2ccc(S(=O)(=O)N3CCN(c4cccc(C)c4C)CC3)cc2)co1 | 97.7 | 11.6 µM [rising, partial curve, poor fit] | 7.31 µM [rising, partial curve, poor fit]
CCC(=O)N1CCc2cc(Br)cc(S(=O)(=O)NCc3ccccc3OC)c21 | 7.21 |  | 6.51 µM [rising, single point]
COCc1c(C(=O)OCC(=O)c2c(N)n(CC(C)C)c(=O)n(C)c2=O)oc2ccccc12 | -25.6 |  | 25.9 µM [falling, single point]
CCn1nc(NS(=O)(=O)c2ccc([N+](=O)[O-])cc2)c2cc3ccc(C)cc3nc21 | -14.1 |  | 
COc1ccccc1-c1nc(SCc2ccccn2)n[nH]1 | 77.7 | 11.6 µM [rising, partial curve] | 4.11 µM [rising, single point]
S=c1[nH]cc(-c2ccc(Cl)cc2)n1-c1ccccc1 | 4.1 |  | 4.61 µM [rising, full curve, poor fit]
CCN(C(=O)C1CCCN1S(=O)(=O)c1ccc2c(c1)n(C)c(=O)c(=O)n2C)c1ccccc1 (configuration not stated) | 14.1 |  | 
COc1ccc(C)cc1NC(=O)CSc1nnc(COc2ccccc2)n1Cc1ccco1 | -27.3 |  | 
Cc1ccc(O)c(CNc2cccc(C)n2)c1 | -1.05 |  | 6.51 µM [rising, single point]
O=C(O)c1ccc(/C=N/NC(=S)NCCN2CCOCC2)cc1 |  | 6.51 µM [falling, single point] | 6.51 µM [falling, single point]
CCc1ccccc1OCC(=O)N1CCN(c2ncccn2)CC1 | -2.01 | 0.291 µM [rising, partial curve, poor fit] | 
CCOC(=O)c1c(NC(=O)c2c(Br)cnn2CC)sc(C)c1C | 18.5 |  | 2.06 µM [rising, full curve, poor fit]
CC(C)c1nnc(NC(=O)CC23CC4CC(CC(C4)C2)C3)s1 | 14.4 | 0.058 µM [rising, full curve, poor fit] | 29.1 µM [rising, single point]

Gathered by group, the compounds so far containing bromine (two)
SMILES | cell number change [%] | AC50 [1] | AC50 [2]
CCC(=O)N1CCc2cc(Br)cc(S(=O)(=O)NCc3ccccc3OC)c21 | 7.21 |  | 6.51 µM [rising, single point]
CCOC(=O)c1c(NC(=O)c2c(Br)cnn2CC)sc(C)c1C | 18.5 |  | 2.06 µM [rising, full curve, poor fit]

Reformatted with tabs: 2 of the compounds above
SMILES	cell number change [%]	AC50 [1]	AC50 [2]
CCC(=O)N1CCc2cc(Br)cc(S(=O)(=O)NCc3ccccc3OC)c21	7.21		6.51 µM [rising, single point]
COCc1c(C(=O)OCC(=O)c2c(N)n(CC(C)C)c(=O)n(C)c2=O)oc2ccccc12	-25.6		25.9 µM [falling, single point]

(further entries)

SMILES | cell number change [%] | AC50 [1] | AC50 [2]
O=C(c1cccc(Br)c1)c1coc2ccc(O)cc12 | -53.5 | 18.4 µM [falling, single point] | 32.6 µM [falling, partial curve]
Cc1ccc(NC(=O)c2ocnc2C)cc1Cl | -18.8 |  | 
Cc1coc(NC(=O)CSc2nc(-c3ccc(Cl)cc3)cc(C(F)(F)F)c2C#N)n1 | 44.2 | 0.291 µM [rising, full curve] | 0.116 µM [rising, full curve, poor fit]
Cc1ccc(CNC(=O)CCS(=O)(=O)c2ccc(Br)s2)o1 | -126 | 1.64 µM [falling, partial curve] | 
CCCN1C(=O)C2(OCCO2)c2cc(Cl)ccc21 | 16.8 |  | 
Cc1ccc(Cl)cc1N1CCN(CC(=O)NC2CCCc3ccccc32)CC1 (configuration not stated) | -45.3 | 20.6 µM [falling, single point] | 16.4 µM [falling, single point]
CCCCN1CCNC[C@@H]1Cc1ccccc1 | 32.9 | 23.1 µM [rising, single point] | 
Cc1ccc(NC(=O)NCC2CC2(Cl)Cl)cc1 (configuration not stated) |  |  | 29.1 µM [rising, single point]
Cc1nnc(SC(C)C(=O)Nc2ccc3ccccc3c2)n1C (configuration not stated) | 14.8 |  | 4.11 µM [rising, single point]
Nc1c(Cl)cc(Cl)cc1C(=O)OCC(=O)N1CCCC1=O | 9.64 |  | 
COc1ccc(Cn2nc(-c3ccccc3)c(N3CCCCC3)cc2=O)cc1 | 17.7 |  | 9.2 µM [rising, partial curve, poor fit]
Cc1cccc(CS(=O)(=O)Cc2ccc(C(=O)NCc3cccnc3)o2)c1 |  | 6.51 µM [rising, single point] | 
Clc1ccc(CN(Cc2ccc(Cl)cc2)c2nn[nH]n2)cc1 |  | 0.82 µM [rising, full curve, poor fit] | 
COc1cccc(CC2CC(=O)N(CCc3ccc4c(c3)OCO4)C2=O)c1 (configuration not stated) |  | 0.184 µM [rising, full curve, poor fit] | 29.1 µM [rising, single point]
Cc1ccc(C(=O)NCCNc2ncc(C(F)(F)F)cc2Cl)cc1[N+](=O)[O-] | 18.5 | 0.731 µM [rising, full curve, poor fit] | 0.231 µM [rising, full curve, poor fit]
COc1cc([N+](=O)[O-])ccc1NC(=O)CSc1ccccn1 |  |  | 6.51 µM [rising, single point]
COc1ccc(C(CNC(=O)COc2ccccc2C)N2CCOCC2)cc1 (configuration not stated) | 154 | 7.31 µM [rising, partial curve] | 
COc1ccc(CNC(=O)c2ccc(NC(=O)CC3SC(N4CCCCC4)=NC3=O)cc2)cc1 (configuration not stated) |  |  | 0.13 µM [falling, full curve, poor fit]
O=S(=O)(c1cccc(-c2n[nH]c(=S)o2)c1)N1CCOCC1 | -34.5 | 23.1 µM [falling, single point] | 29.1 µM [falling, single point]
CCn1c(-c2nn(-c3ccc(C)cc3)ccc2=O)n[nH]c1=S | 33.8 | 3.16 µM [rising, partial curve, poor fit] | 

SMILES | cell number change [%] | AC50 [1] | AC50 [2]
CCOc1cc(CNCCc2ccc(S(N)(=O)=O)cc2)cc(Cl)c1OCc1ccccc1 | -30.5 | 29.1 µM [falling, single point] | 
Cc1ccc(N2CCN(S(=O)(=O)c3ccc(C)cc3)CC2)cc1 | 33.7 | 7.31 µM [rising, partial curve] | 
Cc1ccc(C(=O)Nc2ccc3c(c2)C(=O)N(CC2CCCO2)C3=O)cc1 (configuration not stated) | -18.5 |  | 
O=C(COC(=O)CNC(=O)c1ccccc1)Nc1nc(-c2ccccc2)cs1 | 17.1 |  | 13 µM [rising, partial curve, poor fit]
CCN(CC)S(=O)(=O)c1ccc(OC)c(NC(=O)CC2CCCC2)c1 | -19 |  | 29.1 µM [falling, single point]
CC(C)c1nc(NCC2CCCO2)c(C#N)c2c1COC(C)(C)C2 (configuration not stated) | -38.2 | 23.1 µM [falling, partial curve] | 32.6 µM [falling, single point]
CC(C)c1ccccc1NC(=O)CNC(C)c1ccc(F)cc1 (configuration not stated) |  | 0.411 µM [rising, partial curve] | 0.517 µM [rising, partial curve]
S=c1[nH]nc(-c2ccccc2Cl)n1CC1CCCO1 (configuration not stated) | -13.8 |  | 
COc1cc(/C=C/C(=O)OCC(=O)N2c3ccccc3CC2C)cc(OC)c1OC (configuration not stated) | -14.4 |  | 0.103 µM [rising, full curve, poor fit]
Cc1noc(C)c1S(=O)(=O)N1CCC2(CC1)OCCO2 |  |  | 6.51 µM [falling, single point]
c1ccc(-n2ncc3c(NCC4CCCO4)ncnc32)cc1 (configuration not stated) | -0.995 |  | 0.0058 µM [falling, full curve, poor fit]
Cc1noc(/C=C/c2cccs2)c1S(=O)(=O)N1CCC(C(=O)NCCCN2CCCC(C)C2)CC1 (configuration not stated) | -16.2 | 0.206 µM [falling, full curve] | 0.13 µM [falling, full curve, poor fit]
CC(=O)c1ccc(N2Cc3ccccc3C3(CCOCC3)C2=N)cc1 | 98.7 |  | 
O=C1NCCN1C(=O)N(c1ccccc1)c1ccccc1 | -18.6 |  | 5.8 µM [falling, partial curve]
Cc1ccccc1OCC(=O)NC1CCCCCCC1 | -20 |  | 
CC1C(=O)Nc2ccc(S(=O)(=O)N3CCN(c4cccc(Cl)c4)CC3)cc2NC1=O (configuration not stated) | 4.03 |  | 
C=CCN1C(c2cccc(C(F)(F)F)c2)=CS/C1=C(/C#N)c1nnc(N2CCOCC2)n1-c1ccccc1 | 18.7 |  | 2.59 µM [rising, partial curve, poor fit]
Cc1cccc(Oc2cc(N)cc([N+](=O)[O-])c2)c1 | -34 | 7.31 µM [falling, partial curve, poor fit] | 29.1 µM [falling, single point]
COC(=O)c1cccc(NC(=O)c2ccc[n+]([O-])c2)c1 | -8.76 |  | 
Nn1c(SCC(=O)N2CCCCCC2)nnc1-c1ccncc1 |  |  | 3.26 µM [falling, partial curve]
